Experimental data as given in patent US20210032365A1.
Positions count from the first letter of the chain named. Results are given in words; binding and its absence hold for the method and conditions named. Some binding calls cover weakened binding; strength is not graded here.

Amino acid sequences for entries named in this document (tags omitted). A change or cut given only in a name is not applied to a line headed by its entry.
UniProt P09871: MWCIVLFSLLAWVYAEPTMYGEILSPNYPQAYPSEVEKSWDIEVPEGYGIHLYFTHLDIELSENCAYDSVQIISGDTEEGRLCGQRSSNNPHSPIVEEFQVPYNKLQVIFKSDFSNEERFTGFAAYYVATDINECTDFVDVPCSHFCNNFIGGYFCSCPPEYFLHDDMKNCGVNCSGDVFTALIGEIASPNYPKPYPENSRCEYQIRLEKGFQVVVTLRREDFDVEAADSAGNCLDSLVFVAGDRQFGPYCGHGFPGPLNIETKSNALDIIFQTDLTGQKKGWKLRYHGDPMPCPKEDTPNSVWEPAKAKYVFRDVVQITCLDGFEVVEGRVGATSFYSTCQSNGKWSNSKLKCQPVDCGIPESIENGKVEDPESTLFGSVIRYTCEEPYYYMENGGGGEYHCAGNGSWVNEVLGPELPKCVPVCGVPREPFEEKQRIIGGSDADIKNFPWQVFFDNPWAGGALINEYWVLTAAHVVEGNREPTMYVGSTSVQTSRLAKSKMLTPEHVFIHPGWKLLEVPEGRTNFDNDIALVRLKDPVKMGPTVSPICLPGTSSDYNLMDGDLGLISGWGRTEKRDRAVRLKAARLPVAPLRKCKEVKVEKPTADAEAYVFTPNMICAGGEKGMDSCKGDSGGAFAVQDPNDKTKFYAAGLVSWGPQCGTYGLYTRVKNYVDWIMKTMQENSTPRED

B1: C1_IPN92H0026-SG4GK/IPN93L0031-SK1 (antibody, human IgG4 S228P, kappa, name in Kabat numbering, V domains shown)
VH: EVMLVESGGGLVKPGGSLRLSCAASGFTFSNYAMSWVRQAPGKGLEWVATISSGGSHTYYLDSVKHRFTISRDNSKDTLYLQMNSLRAEDTALYYCARLFTGYAMDYWGQGTLVTVSS
VL: QIVLTQSPATLSLSPGERATLSCTASSSVSSSYLHWYQQKPGKAPKLWIYSTSNLASGVPSRFSGSGSGTDYTLTISSLQPEDFATYYCHQYHRHHPITFGQGTKLEIKR
B2: C1_IPN92H0038-SG4GK/IPN93L0031-SK1 (antibody, human IgG4 S228P, kappa, name in Kabat numbering, V domains shown)
VH: B1 VH with Y103H
VL: B1 VL
B3: C1_IPN92H0033-SG4GK/IPN93L0031-SK1 (antibody, human IgG4 S228P, kappa, name in Kabat numbering, V domains shown)
VH: B1 VH with H66G, Y103H
VL: B1 VL
B4: C1_IPN009VH2-SG4GK/IPN93L0031-SK1 (antibody, human IgG4 S228P, kappa, name in Kabat numbering, V domains shown)
VH: B1 VH with H66G
VL: B1 VL

Biological target: human C1s (human) (UniProt P09871)
Experiment: SPR binding response vs parent; pH 5.8, 1.2 mM Ca

Row | binding | Binder
1 | binds | B1
2 | binds | B2
3 | binds | B3
4 | binds | B4

Biological target: human C1s (human) (UniProt P09871)
Experiment: SPR binding response vs parent; pH 5.8, 3 uM Ca

Row | binding | Binder
5 | binds | B1
6 | binds | B2
7 | binds | B3
8 | binds | B4

Biological target: human C1s (human) (UniProt P09871)
Experiment: SPR binding response vs parent; pH 7.4, 1.2 mM Ca

Row | binding | Binder
9 | binds | B1
10 | binds | B2
11 | binds | B3
12 | binds | B4
